Among the data in publication doi:10.1101/617910 are binding values, retold here.

Results are given in words; binding and its absence hold for the method and conditions named. Binding seen in cells or lysates may run through a third protein. Here binding means that the protein was enriched with, or labelled near, the bait; the list need not be complete.

One experiment has as its target T1, Tsr1-TAP (yeast) (UniProt Q07381).
T1 sequence: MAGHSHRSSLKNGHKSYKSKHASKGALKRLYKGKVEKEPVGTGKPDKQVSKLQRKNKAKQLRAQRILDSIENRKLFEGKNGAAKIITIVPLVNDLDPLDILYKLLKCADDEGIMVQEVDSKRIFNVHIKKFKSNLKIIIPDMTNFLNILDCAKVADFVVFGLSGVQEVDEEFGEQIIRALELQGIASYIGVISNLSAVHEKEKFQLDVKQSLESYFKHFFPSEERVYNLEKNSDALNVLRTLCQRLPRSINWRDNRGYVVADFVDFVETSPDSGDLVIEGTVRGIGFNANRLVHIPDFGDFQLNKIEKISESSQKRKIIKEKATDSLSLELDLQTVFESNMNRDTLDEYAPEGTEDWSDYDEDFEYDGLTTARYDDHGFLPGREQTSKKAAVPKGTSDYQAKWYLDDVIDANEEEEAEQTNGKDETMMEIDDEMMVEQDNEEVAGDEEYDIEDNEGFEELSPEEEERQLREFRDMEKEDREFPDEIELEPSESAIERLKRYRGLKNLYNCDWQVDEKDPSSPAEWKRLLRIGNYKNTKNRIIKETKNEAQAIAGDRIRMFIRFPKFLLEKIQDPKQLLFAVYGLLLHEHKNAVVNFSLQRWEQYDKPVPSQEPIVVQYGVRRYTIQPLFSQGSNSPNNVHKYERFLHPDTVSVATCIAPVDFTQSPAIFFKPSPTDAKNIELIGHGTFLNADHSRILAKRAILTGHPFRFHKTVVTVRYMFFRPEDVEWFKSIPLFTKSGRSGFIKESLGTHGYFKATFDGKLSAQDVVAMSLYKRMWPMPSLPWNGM
The experiment can be described thus: affinity purification with mass spectrometry.

The target in the next experiment is T2, Tsr1-TAP (yeast), Q07381.
T2 chain: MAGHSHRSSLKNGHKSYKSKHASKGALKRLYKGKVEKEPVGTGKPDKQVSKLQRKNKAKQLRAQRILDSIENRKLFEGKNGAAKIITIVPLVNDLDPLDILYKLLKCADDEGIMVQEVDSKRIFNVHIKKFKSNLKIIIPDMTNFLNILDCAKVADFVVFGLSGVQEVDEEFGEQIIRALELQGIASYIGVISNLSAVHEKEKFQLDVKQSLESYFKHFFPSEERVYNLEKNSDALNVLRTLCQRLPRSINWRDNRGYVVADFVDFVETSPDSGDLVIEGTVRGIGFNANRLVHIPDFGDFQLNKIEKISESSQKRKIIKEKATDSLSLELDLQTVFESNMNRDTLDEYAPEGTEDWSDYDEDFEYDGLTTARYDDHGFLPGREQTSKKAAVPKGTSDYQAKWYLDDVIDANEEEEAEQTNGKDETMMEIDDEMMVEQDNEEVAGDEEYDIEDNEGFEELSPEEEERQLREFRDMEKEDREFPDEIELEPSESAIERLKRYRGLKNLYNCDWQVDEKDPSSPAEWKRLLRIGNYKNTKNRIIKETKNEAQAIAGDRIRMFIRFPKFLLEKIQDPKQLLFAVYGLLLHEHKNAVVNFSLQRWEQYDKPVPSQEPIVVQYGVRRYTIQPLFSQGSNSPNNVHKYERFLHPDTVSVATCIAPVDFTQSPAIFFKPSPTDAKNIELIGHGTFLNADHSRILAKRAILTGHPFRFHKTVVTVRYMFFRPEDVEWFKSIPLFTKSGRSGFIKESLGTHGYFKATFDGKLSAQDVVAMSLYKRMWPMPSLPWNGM
The experiment in a line: affinity purification with mass spectrometry. Particulars: remark: other sources report otherwise.

B1: Nob1 (protein, UniProt Q08444 1-459)
chain: MTENQTAHVRALILDATPLITQSYTHYQNYAQSFYTTPTVFQEIKDAQARKNLEIWQSLGTLKLVHPSENSIAKVSTFAKLTGDYSVLSANDLHILALTYELEIKLNNGDWRLRKKPGDALDASKADVGTDGKQKLTEDNKKEEDSESVPKKKNKRRGGKKQKAKREAREAREAENANLELESKAEEHVEEAGSKEQICNDENIKESSDLNEVFEDADDDGDWITPENLTEAIIKDSGEDTTGSLGVEASEEDRHVALNRPENQVALATGDFAVQNVALQMNLNLMNFMSGLKIKRIRNYMLRCHACFKIFPLPKDGKPKHFCASCGGQGTLLRCAVSVDSRTGNVTPHLKSNFQWNNRGNRYSVASPLSKNSQKRYGKKGHVHSKPQENVILREDQKEYEKVIKQEEWTRRHNEKILNNWIGGGSADNYISPFAITGLKQHNVRIGKGRYVNSSKRRS
As to B1, in the experiment with Tsr1-TAP (yeast), the binding result is listed as “binds weakly”.

B2: Dim1, P41819 1-318 (protein)
chain: MGKAAKKKYSGATSSKQVSAEKHLSSVFKFNTDLGQHILKNPLVAQGIVDKAQIRPSDVVLEVGPGTGNLTVRILEQAKNVVAVEMDPRMAAELTKRVRGTPVEKKLEIMLGDFMKTELPYFDICISNTPYQISSPLVFKLINQPRPPRVSILMFQREFALRLLARPGDSLYCRLSANVQMWANVTHIMKVGKNNFRPPPQVESSVVRLEIKNPRPQVDYNEWDGLLRIVFVRKNRTISAGFKSTTVMDILEKNYKTFLAMNNEMVDDTKGSMHDVVKEKIDTVLKETDLGDKRAGKCDQNDFLRLLYAFHQVGIHFS
In the case of B2, in the experiment with Tsr1-TAP (yeast), Q07381, the binding result was “binds”.
